Experimental findings from PMC4876372 (Scientific Reports, 2016) are described below.

In this data set the test system is HeLa cells. Put plainly: ChemProteoBase proteomic profiling (2-D DIGE). Type of data set: cell-based, human. The conditions noted are these: 18 h, NPD7155 300 μM, NPD9948 300 μM, SCH51344 60 μM, (S)-crizotinib 20 μM, TH287 3 μM.

`C[C@H](Oc1cc(-c2cnn(C3CCNCC3)c2)cnc1N)c1c(Cl)ccc(F)c1Cl` [(S)-crizotinib, reference compound]: the “proteomic profile similarity (hierarchical clustering)” value is “did not belong to any clusters of the standard compounds”. Consider `CNc1cc(-c2cccc(Cl)c2Cl)nc(N)n1` [TH287, reference compound], for which the “proteomic profile similarity (hierarchical clustering)” value is recorded as “shared similarity with tubulin-targeting agents”.
